Data: patent US20020177177A1 (PROLIFIX, published 2002)
No constants are given. Whether binding was seen depends on the method and setting. For some of these results: In cells and extracts the contact can be indirect. Some results given as binding are weak or reduced against the parent protein; the word gives no strength.

Protein sequences, listed by entry. Tags and fused reporters are not part of them. Lines headed by an entry give the natural chain unless they say otherwise; changes in a name come on top. Chains listed by the source or under a name are the forms on record and can include a tag or linker. Residues count along the entry.
UniProt Q15788: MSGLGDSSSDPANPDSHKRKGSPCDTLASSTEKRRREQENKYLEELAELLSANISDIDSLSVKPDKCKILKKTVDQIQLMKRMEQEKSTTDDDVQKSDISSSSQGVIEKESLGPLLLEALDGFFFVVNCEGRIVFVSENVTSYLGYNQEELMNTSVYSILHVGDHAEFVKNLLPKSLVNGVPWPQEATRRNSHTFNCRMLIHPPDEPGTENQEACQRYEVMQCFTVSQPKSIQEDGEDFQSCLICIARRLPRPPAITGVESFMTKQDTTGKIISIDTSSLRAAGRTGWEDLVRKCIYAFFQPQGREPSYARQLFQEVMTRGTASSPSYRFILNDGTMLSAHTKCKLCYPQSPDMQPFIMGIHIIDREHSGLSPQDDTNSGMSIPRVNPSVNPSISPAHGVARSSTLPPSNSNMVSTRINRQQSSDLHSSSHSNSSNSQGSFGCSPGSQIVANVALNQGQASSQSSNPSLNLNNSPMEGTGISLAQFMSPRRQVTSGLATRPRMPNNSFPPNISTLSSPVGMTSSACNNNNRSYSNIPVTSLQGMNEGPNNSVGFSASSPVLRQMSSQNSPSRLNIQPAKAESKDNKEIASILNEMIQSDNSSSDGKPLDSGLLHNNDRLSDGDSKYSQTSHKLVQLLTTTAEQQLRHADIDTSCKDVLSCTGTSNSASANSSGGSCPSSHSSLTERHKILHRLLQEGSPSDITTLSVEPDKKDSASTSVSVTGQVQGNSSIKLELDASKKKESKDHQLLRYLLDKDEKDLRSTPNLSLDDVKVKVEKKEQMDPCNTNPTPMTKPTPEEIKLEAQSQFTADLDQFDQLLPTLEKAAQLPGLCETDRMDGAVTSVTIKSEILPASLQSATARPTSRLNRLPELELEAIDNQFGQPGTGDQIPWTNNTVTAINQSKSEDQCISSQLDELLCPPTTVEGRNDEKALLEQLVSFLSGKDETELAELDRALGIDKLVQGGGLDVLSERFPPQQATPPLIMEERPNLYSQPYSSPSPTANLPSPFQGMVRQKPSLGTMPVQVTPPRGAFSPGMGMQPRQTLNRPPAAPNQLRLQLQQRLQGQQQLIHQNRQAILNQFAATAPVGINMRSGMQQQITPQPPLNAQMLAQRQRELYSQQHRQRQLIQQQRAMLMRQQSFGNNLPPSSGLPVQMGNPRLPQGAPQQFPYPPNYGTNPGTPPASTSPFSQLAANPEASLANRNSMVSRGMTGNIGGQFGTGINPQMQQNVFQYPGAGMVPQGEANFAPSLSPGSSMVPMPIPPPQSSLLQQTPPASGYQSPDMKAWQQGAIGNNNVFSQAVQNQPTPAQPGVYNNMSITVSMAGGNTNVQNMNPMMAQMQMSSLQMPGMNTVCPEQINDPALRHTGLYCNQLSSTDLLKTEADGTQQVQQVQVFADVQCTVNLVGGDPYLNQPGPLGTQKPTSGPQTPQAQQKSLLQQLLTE
GST-SRC1 361-1441: residues 361-1441 of Q15788
GST-SRC1 361-782: residues 361-782 of Q15788
UniProt P03372: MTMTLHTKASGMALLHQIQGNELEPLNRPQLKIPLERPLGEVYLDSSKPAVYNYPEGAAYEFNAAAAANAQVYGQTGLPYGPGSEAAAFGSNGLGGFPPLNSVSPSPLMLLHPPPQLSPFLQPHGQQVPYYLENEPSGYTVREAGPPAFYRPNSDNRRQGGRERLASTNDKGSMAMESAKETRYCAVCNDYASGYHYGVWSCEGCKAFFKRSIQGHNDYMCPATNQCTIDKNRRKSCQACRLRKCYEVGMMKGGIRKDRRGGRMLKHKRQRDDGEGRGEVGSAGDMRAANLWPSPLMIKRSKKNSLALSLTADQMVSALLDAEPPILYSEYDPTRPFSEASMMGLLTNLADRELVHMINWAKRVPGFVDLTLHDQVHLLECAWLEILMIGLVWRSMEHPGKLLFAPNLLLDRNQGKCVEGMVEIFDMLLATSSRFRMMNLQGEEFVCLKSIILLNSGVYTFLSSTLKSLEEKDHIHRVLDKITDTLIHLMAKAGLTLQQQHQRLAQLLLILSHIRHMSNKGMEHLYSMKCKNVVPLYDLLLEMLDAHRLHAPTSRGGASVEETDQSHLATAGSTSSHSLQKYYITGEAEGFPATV
UniProt P24385: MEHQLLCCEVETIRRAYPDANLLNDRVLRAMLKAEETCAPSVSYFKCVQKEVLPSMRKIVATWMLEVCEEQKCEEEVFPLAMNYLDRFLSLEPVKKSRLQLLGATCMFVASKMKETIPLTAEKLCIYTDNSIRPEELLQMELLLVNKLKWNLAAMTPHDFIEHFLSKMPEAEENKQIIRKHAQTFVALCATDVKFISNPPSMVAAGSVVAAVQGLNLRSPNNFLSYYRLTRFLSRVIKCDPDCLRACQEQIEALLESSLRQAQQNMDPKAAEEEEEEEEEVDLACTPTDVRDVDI
cyclin D1 L254/255A mutant (P24385, form named): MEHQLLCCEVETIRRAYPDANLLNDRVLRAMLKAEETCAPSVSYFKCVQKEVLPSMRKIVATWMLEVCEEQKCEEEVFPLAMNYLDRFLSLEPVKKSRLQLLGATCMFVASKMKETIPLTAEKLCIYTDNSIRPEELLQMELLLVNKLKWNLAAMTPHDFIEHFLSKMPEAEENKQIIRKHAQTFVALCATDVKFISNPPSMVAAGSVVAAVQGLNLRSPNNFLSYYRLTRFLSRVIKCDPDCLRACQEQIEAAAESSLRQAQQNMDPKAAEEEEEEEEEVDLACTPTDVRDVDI

Columns and labels:
HA-tagged SRC-1 (human) [1] = target: HA-tagged SRC-1 (human) (UniProt Q15788); assay: summary of the binding experiments of this study
HA-tagged SRC-1 (human) [2] = target: HA-tagged SRC-1 (human) (UniProt Q15788); assay: co-immunoprecipitation (12CA5 HA antibody) from transfected COS-7 cells, anti-cyclin D1 Western blot
[3] = target: wild type estrogen receptor (ER) expressed in cells (UniProt P03372); assay: co-immunoprecipitation (monoclonal ER antibody) from transfected COS-7 cells, anti-cyclin D1 Western blot
[4] = target: wild type estrogen receptor (ER) expressed in cells (UniProt P03372); assay: restates the co-immunoprecipitation result
[5] = target: wild type estrogen receptor (ER) expressed in cells (UniProt P03372); assay: summary of the co-immunoprecipitation experiments
[6] = target: GST-SRC1 361-1441 (human) (UniProt Q15788); assay: GST pull-down on glutathione-agarose, anti-cyclin D1 Western blot
GST-SRC1 361-782 (human) = GST-SRC1 361-782 (human) (UniProt Q15788); assay: as above
[7] = target: GST-SRC1 361-1441 (human) (UniProt Q15788); assay: in vitro protein binding assay (GST pull-down) with purified bacterially expressed proteins
baculovirus-produced ER = baculovirus-produced ER (UniProt P03372); assay: pull-down with ERE oligonucleotide on streptavidin paramagnetic beads, purified proteins, Western blot

binding (HA-tagged SRC-1 (human) [1])	binding (HA-tagged SRC-1 (human) [2])	binding [3]	binding [4]	binding [5]	binding [6]	binding (GST-SRC1 361-782 (human))	binding [7]	binding (baculovirus-produced ER)	Substance
binds	binds	binds	–	–	–	–	–	–	wild type cyclin D1 (from UniProt P24385 1-295)
–	–	binds	binds	binds	–	–	–	–	cyclin D1 L254/255A mutant (from UniProt P24385 1-295)
–	–	–	–	–	binds	binds	binds	binds	E. coli-produced 6X histidine-tagged cyclin D1 (from UniProt P24385 1-295)
